Test results published in patent US6830310B2, “Detectable markers in cationic polymeric fixers” (Hewlett-Packard Development Company, L.P., priority 2002, dated 2004).

Key:
[1] = Fluorescence of indicator under UV / IR; assay type: physicochemical
[2] = Print evaluation of fixer+indicator on HM, LL and FM media viewed under UV
[3] = Nozzle pattern observation of cationic polymer fixer spiked with marker; settings: visible indicator in fixer
[4] = % reflectance of fixer+indicator printed area (Cary Spectrometer, diffuse mode); settings: for Changes in %R @ ~260 nm: on HM, LL and FM

| Molecule | Fluorescent under UV? [1] | also measured |
| --- | --- | --- |
| CCN1/C(=C/C=C2\CCC(/C=C/c3sc4ccc(Cl)cc4[n+]3CC)=C2N(c2ccccc2)c2ccccc2)Sc2ccc(Cl)cc21.[O-][Cl+3]([O-])([O-])[O-] [IR140] | No | – |
| CCOc1ccc2c(ccc(/C=C/c3cccc([N+](=O)[O-])c3)[n+]2C)c1.COS(=O)(=O)[O-] [Pinacryptol Yellow] | No | – |
| CCN(CC)c1ccc2cc(-c3nc4ccccc4[nH]3)c(=O)oc2c1 [Coumarin 7] | Yes | – |
| CC1(C)C(/C=C/C=C/C=C/C=C2\N(CCCCS(=O)(=O)O)c3ccc4ccccc4c3C2(C)C)=[N+](CCCCS(=O)(=O)[O-])c2ccc3ccccc3c21 [Indocyanine Green] | No | – |
| O=S(=O)([O-])c1cc(Nc2nc(Nc3ccccc3)nc(N(CCO)CCO)n2)ccc1/C=C/c1ccc(Nc2nc(Nc3ccccc3)nc(N(CCO)CCO)n2)cc1S(=O)(=O)[O-].[Na+].[Na+] [FluorescentBrightner28] | Yes | – |
| Cc1cc(=O)oc2cc(O)c(O)cc12 [4-Methylesculetin] | No | – |
| Cc1cc2nc3[nH]c(=O)[nH]c(=O)c3nc2cc1C [Lumichrome] | Yes | – |
| Variamine Blue | No | – |
| CCN(CC)CCc1c(C)c2ccc(O)cc2oc1=O.Cl [3-[2-(diethylamino)ethyl]-7-hydroxy-4-methylcoumarin hydrochloride] | Yes | – |
| CCN=C1C=CC(=C(c2ccc(N(CC)CC)cc2)c2ccc(N(CC)CC)cc2)c2ccccc21.Cl [Victoria Blue BO] | No | Print Evaluation, visibility under IR [2]: Visible under IR |
| Cc1ccc2c(c1)sc(-c1ccc(N(C)C)cc1)[n+]2C.[Cl-] [Thioflavin T] | No | – |
| CCN(CC)c1ccc(/C=C/C2=[N+](C)c3ccccc3C2(C)C)cc1.[Cl-] [Basic Violet 16] | – | Loading needed to see the nozzle pattern [3]: ≥ 750 ppm |
| CN(C)c1ccc2c(C(F)(F)F)cc(=O)oc2c1 [Coumarin 152] | Yes | – |
| Cc1cc(O)nc2cc(N)ccc12 [Carbostyril 124] | Yes | – |
| CN(C)c1ccc(C=Cc2ccccn2)cc1 [2-[4-(Dimethylamino)styryl]pyridine] | No | – |
| Nc1ccc(C(=O)O)cc1 [4-Aminobenzoic acid (PABA), 4-Aminobenzoic acid] | No | Reflectance at ~260 nm vs media ([4]; Fortune Matte): slightly high reflectance than the media alone; Reflectance at 260 nm or so ([4]; Hammermill Fore DP, 0.1% PABA, 1 ppm Tinosorb FR): slight decrease in reflectance; Changes in %R @ ~260 nm [4]: Some changes in; Changes in %R @ ~260 nm ([4]; listed as PABA): slight difference |
| Cc1ccc2nc(-c3ccc(N=NNc4ccc(-c5nc6ccc(C)c(S(=O)(=O)[O-])c6s5)cc4)cc3)sc2c1S(=O)(=O)[O-].[Na+].[Na+] [Direct Yellow 9] | No | – |
